Measured values taken from PMC6126864.
These are yes or no findings as the source states them, for the method shown. In cells and extracts the contact can be indirect. Where a sequence is shown, tags or fusion partners need not be part of it.

Protein sequences, listed by entry. Tags and fused reporters are not part of them.
UniProt A1ZAJ2: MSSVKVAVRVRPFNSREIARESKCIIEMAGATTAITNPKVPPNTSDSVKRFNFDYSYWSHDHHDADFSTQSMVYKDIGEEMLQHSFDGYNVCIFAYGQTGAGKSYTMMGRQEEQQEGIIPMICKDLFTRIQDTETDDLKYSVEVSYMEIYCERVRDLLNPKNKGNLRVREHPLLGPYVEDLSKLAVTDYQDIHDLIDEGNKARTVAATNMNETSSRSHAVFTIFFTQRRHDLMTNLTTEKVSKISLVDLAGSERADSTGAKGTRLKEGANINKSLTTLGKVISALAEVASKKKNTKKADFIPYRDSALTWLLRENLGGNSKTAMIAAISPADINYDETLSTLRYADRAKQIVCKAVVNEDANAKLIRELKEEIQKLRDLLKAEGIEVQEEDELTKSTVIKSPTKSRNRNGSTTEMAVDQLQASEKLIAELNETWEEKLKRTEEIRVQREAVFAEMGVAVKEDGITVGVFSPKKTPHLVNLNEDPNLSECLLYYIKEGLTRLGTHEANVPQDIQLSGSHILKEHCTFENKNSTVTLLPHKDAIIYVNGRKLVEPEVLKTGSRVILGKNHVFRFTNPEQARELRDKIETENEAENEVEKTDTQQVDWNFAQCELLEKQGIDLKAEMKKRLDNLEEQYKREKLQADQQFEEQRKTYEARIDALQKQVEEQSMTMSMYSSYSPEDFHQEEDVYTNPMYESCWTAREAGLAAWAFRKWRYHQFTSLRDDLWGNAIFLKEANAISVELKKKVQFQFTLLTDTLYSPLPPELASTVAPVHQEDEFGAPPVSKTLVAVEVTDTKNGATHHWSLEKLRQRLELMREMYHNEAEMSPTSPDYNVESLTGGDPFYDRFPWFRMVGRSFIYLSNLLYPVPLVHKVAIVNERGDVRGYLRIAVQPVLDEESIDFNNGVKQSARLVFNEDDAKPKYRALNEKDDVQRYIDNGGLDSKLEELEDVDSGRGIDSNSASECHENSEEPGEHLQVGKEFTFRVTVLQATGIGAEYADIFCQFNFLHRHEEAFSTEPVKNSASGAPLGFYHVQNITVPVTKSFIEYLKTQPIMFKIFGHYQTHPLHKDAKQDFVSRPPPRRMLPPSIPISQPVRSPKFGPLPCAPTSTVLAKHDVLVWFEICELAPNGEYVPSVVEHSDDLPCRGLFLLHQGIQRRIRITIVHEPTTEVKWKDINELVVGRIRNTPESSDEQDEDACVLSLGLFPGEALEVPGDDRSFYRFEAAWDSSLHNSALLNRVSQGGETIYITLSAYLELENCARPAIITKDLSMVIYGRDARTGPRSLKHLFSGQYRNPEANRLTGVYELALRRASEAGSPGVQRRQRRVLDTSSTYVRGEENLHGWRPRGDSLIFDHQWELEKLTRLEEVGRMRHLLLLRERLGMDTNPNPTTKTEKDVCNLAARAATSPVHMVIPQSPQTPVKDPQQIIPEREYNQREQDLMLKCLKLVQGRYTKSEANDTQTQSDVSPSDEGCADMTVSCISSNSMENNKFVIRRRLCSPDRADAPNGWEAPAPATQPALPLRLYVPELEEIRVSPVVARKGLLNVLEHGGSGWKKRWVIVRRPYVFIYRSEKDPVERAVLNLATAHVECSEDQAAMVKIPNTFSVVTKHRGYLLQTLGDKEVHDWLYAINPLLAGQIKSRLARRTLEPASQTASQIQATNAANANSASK

T1: Flag-Rab5 (Drosophila) (UniProt Q9V3I2)
T1 sequence: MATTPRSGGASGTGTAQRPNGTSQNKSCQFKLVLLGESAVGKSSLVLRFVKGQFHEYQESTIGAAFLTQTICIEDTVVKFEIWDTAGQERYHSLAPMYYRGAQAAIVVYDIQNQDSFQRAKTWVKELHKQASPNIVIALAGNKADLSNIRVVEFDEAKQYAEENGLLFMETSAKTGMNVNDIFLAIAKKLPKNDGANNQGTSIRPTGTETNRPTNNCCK


Legend:
Flag-Rab5 (Drosophila) = molecular target: T1, Flag-Rab5 (Drosophila); experiment: co-IP; S2 cells co-transfected with the two tagged proteins; lysate (25 mM Tris pH 8, 27.5 mM NaCl, 20 mM KCl, 0.5% Nonidet P40) immunoprecipitated with anti-Myc, anti-Flag or anti-HA overnight at 4°C, protein A/G beads, washed four times with cold PBS; western blot
[1] = molecular target: Imac-HA (immaculate connections / Uncoordinated-104) (Drosophila) (UniProt A1ZAJ2); experiment: as above

Molecule | binding (Flag-Rab5 (Drosophila)) | binding [1]
Imac-HA (immaculate connections / Uncoordinated-104) (from UniProt A1ZAJ2 1-1670) | no binding | 
Flag-Rab5 (protein, UniProt Q9V3I2 1-219) MATTPRSGGASGTGTAQRPNGTSQNKSCQFKLVLLGESAVGKSSLVLRFVKGQFHEYQESTIGAAFLTQTICIEDTVVKFEIWDTAGQERYHSLAPMYYRGAQAAIVVYDIQNQDSFQRAKTWVKELHKQASPNIVIALAGNKADLSNIRVVEFDEAKQYAEENGLLFMETSAKTGMNVNDIFLAIAKKLPKNDGANNQGTSIRPTGTETNRPTNNCCK |  | no binding
